The supplement of paper PMC10849652
The list shows a part of the results. Residues, ends and D or L forms follow the SMILES beside them. *: point of attachment. Cbz = O=C(OCc1ccccc1)*

Sequences of proteins named here, by UniProt entry; tags and fusion partners are left off. A change or cut given only in a name is not applied to a line headed by its entry.
UniProt O00458: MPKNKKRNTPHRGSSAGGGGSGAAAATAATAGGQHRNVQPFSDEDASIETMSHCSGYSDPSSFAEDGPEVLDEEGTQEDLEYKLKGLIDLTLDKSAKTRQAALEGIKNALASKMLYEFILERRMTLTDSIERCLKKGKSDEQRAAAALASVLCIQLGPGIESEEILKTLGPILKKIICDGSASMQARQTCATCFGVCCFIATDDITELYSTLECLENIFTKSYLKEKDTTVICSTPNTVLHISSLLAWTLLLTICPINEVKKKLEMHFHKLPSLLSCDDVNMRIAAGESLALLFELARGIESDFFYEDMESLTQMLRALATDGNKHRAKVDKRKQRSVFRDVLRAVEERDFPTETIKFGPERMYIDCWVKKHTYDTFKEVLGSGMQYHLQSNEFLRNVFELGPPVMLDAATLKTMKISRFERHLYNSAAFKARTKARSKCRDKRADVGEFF
UniProt Q8IWB1: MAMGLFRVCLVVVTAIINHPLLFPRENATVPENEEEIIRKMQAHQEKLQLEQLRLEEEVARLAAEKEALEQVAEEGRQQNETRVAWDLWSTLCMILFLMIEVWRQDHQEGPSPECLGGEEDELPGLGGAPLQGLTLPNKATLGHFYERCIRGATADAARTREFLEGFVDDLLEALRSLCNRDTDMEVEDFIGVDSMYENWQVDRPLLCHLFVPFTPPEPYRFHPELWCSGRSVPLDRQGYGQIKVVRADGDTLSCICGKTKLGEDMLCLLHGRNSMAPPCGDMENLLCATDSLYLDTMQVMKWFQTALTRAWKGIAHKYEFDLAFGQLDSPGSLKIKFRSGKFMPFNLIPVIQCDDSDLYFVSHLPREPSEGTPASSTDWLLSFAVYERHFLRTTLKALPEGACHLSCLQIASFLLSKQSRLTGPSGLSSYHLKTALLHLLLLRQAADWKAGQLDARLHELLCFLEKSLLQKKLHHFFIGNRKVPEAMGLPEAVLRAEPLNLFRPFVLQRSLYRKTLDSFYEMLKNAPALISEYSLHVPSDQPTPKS
UniProt Q12906, whole entry, looked up: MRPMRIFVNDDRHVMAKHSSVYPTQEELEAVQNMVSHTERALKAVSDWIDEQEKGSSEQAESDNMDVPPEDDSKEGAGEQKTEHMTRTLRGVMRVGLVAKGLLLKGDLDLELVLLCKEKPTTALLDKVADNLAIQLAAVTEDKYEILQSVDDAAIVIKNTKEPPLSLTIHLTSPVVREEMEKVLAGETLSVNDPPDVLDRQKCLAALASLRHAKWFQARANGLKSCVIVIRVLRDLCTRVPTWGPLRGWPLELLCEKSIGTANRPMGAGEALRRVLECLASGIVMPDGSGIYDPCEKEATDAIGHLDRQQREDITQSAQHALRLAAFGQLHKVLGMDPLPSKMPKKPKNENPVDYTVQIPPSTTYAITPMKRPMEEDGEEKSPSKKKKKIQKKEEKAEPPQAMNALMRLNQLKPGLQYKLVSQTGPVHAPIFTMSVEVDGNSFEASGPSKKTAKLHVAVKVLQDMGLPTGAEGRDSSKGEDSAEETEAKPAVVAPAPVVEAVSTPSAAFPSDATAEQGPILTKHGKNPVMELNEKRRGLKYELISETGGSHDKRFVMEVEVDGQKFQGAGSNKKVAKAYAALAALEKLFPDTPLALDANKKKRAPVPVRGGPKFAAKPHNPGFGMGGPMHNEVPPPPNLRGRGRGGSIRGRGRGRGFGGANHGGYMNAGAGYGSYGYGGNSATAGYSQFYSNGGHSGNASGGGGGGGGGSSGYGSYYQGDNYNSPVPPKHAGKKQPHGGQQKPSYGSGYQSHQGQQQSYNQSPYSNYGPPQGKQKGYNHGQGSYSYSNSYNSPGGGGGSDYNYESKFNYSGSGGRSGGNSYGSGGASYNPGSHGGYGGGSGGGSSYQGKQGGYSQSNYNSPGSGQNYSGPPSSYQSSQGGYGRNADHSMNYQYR
UniProt Q9Y5U9: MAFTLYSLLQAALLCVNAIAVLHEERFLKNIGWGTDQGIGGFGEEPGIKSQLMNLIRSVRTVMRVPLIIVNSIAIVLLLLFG
UniProt A1L0T0: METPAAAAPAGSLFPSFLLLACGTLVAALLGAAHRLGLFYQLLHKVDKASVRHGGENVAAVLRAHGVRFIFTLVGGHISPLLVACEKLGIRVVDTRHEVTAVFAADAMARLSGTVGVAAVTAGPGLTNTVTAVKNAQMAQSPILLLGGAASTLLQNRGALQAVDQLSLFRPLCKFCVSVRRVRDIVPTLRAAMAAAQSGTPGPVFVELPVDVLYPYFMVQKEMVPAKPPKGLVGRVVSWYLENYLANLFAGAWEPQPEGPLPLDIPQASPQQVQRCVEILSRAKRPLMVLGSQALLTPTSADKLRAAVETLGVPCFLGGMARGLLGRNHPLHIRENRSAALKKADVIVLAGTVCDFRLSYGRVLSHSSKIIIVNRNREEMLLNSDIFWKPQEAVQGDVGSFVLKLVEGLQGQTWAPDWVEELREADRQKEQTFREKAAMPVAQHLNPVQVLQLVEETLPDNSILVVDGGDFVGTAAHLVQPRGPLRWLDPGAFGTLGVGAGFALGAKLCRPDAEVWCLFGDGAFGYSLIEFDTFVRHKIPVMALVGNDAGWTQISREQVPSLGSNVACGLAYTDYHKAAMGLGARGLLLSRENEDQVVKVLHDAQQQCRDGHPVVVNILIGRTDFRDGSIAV
UniProt Q13422: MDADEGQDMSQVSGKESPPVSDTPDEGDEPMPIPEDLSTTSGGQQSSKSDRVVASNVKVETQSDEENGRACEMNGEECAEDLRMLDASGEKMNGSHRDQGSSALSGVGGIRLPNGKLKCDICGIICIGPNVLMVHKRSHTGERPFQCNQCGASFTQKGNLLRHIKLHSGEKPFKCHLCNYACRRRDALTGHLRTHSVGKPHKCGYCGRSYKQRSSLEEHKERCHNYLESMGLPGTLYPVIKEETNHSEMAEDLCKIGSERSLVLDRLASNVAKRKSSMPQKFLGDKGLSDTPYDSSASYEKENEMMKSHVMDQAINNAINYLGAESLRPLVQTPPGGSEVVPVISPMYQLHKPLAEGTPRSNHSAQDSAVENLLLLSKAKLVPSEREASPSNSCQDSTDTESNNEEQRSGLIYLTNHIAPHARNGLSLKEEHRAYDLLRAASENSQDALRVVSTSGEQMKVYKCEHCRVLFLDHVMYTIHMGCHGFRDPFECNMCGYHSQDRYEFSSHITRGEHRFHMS
UniProt Q9NWZ3, whole entry, looked up: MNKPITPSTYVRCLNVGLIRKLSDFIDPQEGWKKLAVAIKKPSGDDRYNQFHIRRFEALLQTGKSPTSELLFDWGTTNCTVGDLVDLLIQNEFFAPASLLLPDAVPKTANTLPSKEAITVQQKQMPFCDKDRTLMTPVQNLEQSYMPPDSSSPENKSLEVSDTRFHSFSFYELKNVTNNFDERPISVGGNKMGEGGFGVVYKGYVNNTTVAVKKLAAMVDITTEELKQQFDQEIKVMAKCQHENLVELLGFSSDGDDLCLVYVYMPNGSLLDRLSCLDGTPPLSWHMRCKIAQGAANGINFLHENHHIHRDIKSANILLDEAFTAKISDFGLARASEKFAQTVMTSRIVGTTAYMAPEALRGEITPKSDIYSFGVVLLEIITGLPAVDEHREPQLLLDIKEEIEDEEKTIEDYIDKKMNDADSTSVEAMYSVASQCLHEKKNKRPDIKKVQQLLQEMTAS
UniProt Q6P9B9, whole entry, looked up: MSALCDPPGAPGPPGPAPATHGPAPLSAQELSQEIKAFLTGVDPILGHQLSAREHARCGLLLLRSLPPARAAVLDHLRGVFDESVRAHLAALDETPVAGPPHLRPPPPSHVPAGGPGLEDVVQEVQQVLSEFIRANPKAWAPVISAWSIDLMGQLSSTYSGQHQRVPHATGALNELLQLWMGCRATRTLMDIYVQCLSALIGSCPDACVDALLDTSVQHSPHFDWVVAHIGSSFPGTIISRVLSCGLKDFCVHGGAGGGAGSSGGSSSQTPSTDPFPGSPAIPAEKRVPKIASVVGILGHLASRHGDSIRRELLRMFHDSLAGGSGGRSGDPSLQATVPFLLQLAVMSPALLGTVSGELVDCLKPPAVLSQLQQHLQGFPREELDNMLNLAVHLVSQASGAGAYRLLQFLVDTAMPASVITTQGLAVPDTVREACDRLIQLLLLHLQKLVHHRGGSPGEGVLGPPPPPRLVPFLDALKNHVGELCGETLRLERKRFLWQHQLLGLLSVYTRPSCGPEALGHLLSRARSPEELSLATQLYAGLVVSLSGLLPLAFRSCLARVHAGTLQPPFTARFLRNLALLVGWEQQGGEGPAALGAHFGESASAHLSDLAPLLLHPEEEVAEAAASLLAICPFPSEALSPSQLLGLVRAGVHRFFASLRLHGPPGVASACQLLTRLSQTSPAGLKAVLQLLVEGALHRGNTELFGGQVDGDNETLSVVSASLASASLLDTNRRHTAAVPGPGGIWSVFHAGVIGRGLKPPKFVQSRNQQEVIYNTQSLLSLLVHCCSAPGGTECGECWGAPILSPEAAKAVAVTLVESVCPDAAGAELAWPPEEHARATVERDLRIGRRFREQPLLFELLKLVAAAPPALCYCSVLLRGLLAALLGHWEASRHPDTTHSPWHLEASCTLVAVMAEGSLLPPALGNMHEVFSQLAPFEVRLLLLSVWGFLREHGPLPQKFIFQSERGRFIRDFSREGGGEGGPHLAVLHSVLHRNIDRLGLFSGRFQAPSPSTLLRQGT

Legend:
Assay in all cases: log2 fold change, soluble protein after heating vs DMSO (PISA); higher = thermal stabilisation; K562 cells, 10 uM, 30 min; active = over 0.2 and 3.5 SD of the protein, either way, in both replicates (recomputed)
erlotinib = compound: C#Cc1cccc(Nc2ncnc3cc(OCCOC)c(OCCOC)cc23)c1 [erlotinib]
Summary of the method: (§1)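 Values are thermal stability changes relative to control samples and are taken from duplicates. They are stated as log2 fold changes. Before quantification by TMTpro 16plex LC-MS/MS with equalised channel sums, K562 cells at 2×10^6 cells/mL were treated with 10 μM compound for 30 min, heated in aliquots for 3 min across 48°C-58°C, pooled, extracted in PBS with 0.5% NP-40 at 4°C, and centrifuged at 21,000xg for 90 min to give the soluble supernatant.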

[1] = compound: C/C(=N\NC(=O)C1=CC(=CC=C1)S(=O)(=O)N2CCOCC2)/C3=C(C=CC(=C3)Cl)O
Summary of the method: as §1

[2] = compound: C1=CC(=C(C=C1Cl)C2=NC3=NC=CN=C3C(=N2)NC4=CC=NC=C4)F
Summary of the method: as §1

[3] = compound: C1=CC(=CC=C1C2=NC3=C(N2)C=C(C=C3)C(=O)N)OC4=CC=C(C=C4)Cl
Summary of the method: as §1

[4] = compound: C1=CC2=C(C=CC(=C2)/C=C\3/C(=O)NC(=NCC4=CC=CS4)S3)N=C1
Summary of the method: as §1

[5] = compound: C1=CC2=NC=CN=C2C=C1/C=C/3\C(=O)NC(=O)S3
Summary of the method: as §1

[6] = compound: C1=CC=C(C=C1)C2=NC(=C(N2)C3=CC=NC=C3)C4=CC(=C(C=C4)Cl)O
Summary of the method: as §1

[7] = compound: C1=CC=C2C(=C1)C3=NNC4=CC=CC(=C43)C2=O
Summary of the method: as §1

[8] = compound: C1CCN(C1)C(=O)NC2=CC=CC(=C2)NC3=NC=C(C(=N3)NCCC4=CN=CN4)Br
Summary of the method: as §1

[9] = compound: C1CN(CCC1(CC2=CC=C(C=C2)Cl)N)C3=NC=NC4=C3C=CN4
Summary of the method: as §1

IRAK-1-4 Inhibitor I = compound: C1COCCN1CCN2C3=CC=CC=C3N=C2NC(=O)C4=CC(=CC=C4)[N+](=O)[O-] [IRAK-1-4 Inhibitor I]
Summary of the method: as §1

ibrutinib = compound: C=CC(=O)N1CCC[C@@H](n2nc(-c3ccc(Oc4ccccc4)cc3)c3c(N)ncnc32)C1 [ibrutinib]
Summary of the method: as §1

[10] = compound: CC(=O)c1cnc2ccc(-c3cc(Cl)c(O)c(Cl)c3)nc2c1N[C@H]1CC[C@H](CN(C)C)CC1
Summary of the method: as §1

ralimetinib = compound: CC(C)(C)Cn1c(N)nc2ccc(-c3[nH]c(C(C)(C)C)nc3-c3ccc(F)cc3)nc21 [ralimetinib]
Summary of the method: as §1

[11] = compound: CC(C)(O)CC(=O)NCCn1ccc2ncnc(Nc3ccc(Oc4cccc(C(F)(F)F)c4)c(Cl)c3)c21
Summary of the method: as §1

[12] = compound: CC(C)C1=C2N=C(C=C(N2N=C1)NCC3=CC=CC=C3)NCCCCCCN
Summary of the method: as §1

[13] = compound: CC(C)C[C@@H](C=O)NC(=O)[C@H](CC(C)C)NC(=O)[C@H](CC(C)C)NC(=O)OCc1ccccc1
Summary of the method: as §1

pinometostat = compound: CC(C)N(C[C@H]1O[C@@H](n2cnc3c(N)ncnc32)[C@H](O)[C@@H]1O)[C@H]1C[C@@H](CCc2nc3cc(C(C)(C)C)ccc3[nH]2)C1 [pinometostat]
Summary of the method: as §1

[14] = compound: CC1=C(C2=C(C=C1)C(=O)C3=CC=CC=C3N2CCCN)C
Summary of the method: as §1

Target | log2 fold change (erlotinib) | log2 fold change [1] | log2 fold change [2] | log2 fold change [3] | log2 fold change [4] | log2 fold change [5] | log2 fold change [6] | log2 fold change [7] | log2 fold change [8] | log2 fold change [9] | log2 fold change (IRAK-1-4 Inhibitor I) | log2 fold change (ibrutinib) | log2 fold change [10] | log2 fold change (ralimetinib) | log2 fold change [11] | log2 fold change [12] | log2 fold change [13] | log2 fold change (pinometostat) | log2 fold change [14]
IFRD1 (UniProt O00458) | inactive: 0.226 | inactive: -0.021 | inactive: -0.124 | inactive: -0.008 | inactive: 0.134 | inactive: 0.199 | inactive: -0.013 | inactive: 0.068 | inactive: 0.042 | inactive: -0.04 | inactive: 0.033 | inactive: 0.058 | inactive: 0.203 | inactive: -0.014 | inactive: -0.002 | inactive: -0.035 | inactive: 0.168 | inactive: -0.029 | active: -1.05
ITPRIP (UniProt Q8IWB1) | inactive: 0.012 | inactive: -0.086 | inactive: 0.052 | inactive: 0.034 | inactive: -0.05 | inactive: 0.01 | inactive: -0.085 | inactive: -0.094 | inactive: -0.02 | inactive: 0.012 | inactive: -0.063 | inactive: 0.059 | inactive: -0.013 | inactive: 0.005 | inactive: 0.007 | inactive: -0.074 | inactive: 0.082 | inactive: -0.005 | inactive: 0.022
ILF3 isoform 7 (UniProt Q12906) | inactive: -0.068 | inactive: -0.084 | inactive: -0.266 | inactive: -0.004 | inactive: -0.049 | inactive: 0.099 | inactive: -0.061 | inactive: -0.01 | inactive: 0.054 | inactive: -0.186 | inactive: -0.098 | inactive: 0.014 | inactive: 0.172 | inactive: 0.067 | inactive: 0.086 | inactive: 0.338 | inactive: 0.001 | inactive: 0.134 | inactive: 0.218
IER3IP1 (UniProt Q9Y5U9) | inactive: -0.065 | inactive: 0.082 | inactive: -0.11 | inactive: -0.006 | inactive: -0.111 | inactive: 0.167 | inactive: 0.038 | inactive: -0.061 | inactive: -0.052 | inactive: 0.023 | inactive: 0.079 | inactive: -0.08 | inactive: 0.106 | inactive: 0.113 | inactive: 0.158 | inactive: 0.106 | inactive: -0.194 | inactive: -0.043 | inactive: -0.027
ILVBL (UniProt A1L0T0) | inactive: 0.027 | inactive: 0.092 | inactive: -0.035 | inactive: -0.02 | inactive: 0.178 | inactive: -0.03 | inactive: 0.009 | inactive: -0.026 | inactive: 0.014 | inactive: 0.095 | inactive: 0.073 | inactive: 0.048 | inactive: -0.027 | inactive: -0.075 | inactive: -0.053 | inactive: 0.058 | inactive: -0.018 | inactive: 0.066 | inactive: 0.025
IKZF1 (UniProt Q13422) | inactive: -0.005 | inactive: -0.018 | inactive: -0.008 | inactive: 0.002 | inactive: -0.015 | inactive: 0.019 | inactive: -0.069 | inactive: 0.144 | inactive: 0.051 | inactive: 0 | inactive: -0.017 | inactive: 0.041 | inactive: -0.069 | inactive: -0.036 | inactive: -0.015 | inactive: -0.016 | inactive: 0.011 | inactive: 0.01 | inactive: 0.275
IRAK4 (UniProt Q9NWZ3) | inactive: 0.041 | inactive: -0.009 | inactive: 0.068 | inactive: -0.038 | inactive: 0.059 | inactive: -0.023 | inactive: 0.011 | inactive: -0.004 | inactive: 0.069 | inactive: -0.074 | inactive: -0.012 | inactive: 0.002 | inactive: 0.196 | inactive: -0.014 | inactive: -0.092 | active: -0.252 | inactive: -0.026 | inactive: 0.065 | inactive: -0.002
INTS5 (UniProt Q6P9B9) | inactive: -0.027 | inactive: 0.025 | active: -0.403 | inactive: -0.086 | inactive: -0.023 | inactive: 0.097 | inactive: -0.138 | inactive: -0.18 | inactive: -0.126 | inactive: -0.033 | inactive: 0.076 | inactive: -0.039 | inactive: 0.529 | inactive: 0.019 | inactive: -0.232 | inactive: 0.052 | inactive: -0.064 | inactive: 0.033 | inactive: 0.073
